Assay results taken from PubChem BioAssay AID540276 (National Center for Advancing Translational Sciences (NCATS), 2011).
About 5,400 (1.8%) of roughly 300,000 compounds were called active. Inconclusive results, whose numbers are uncertain, are shown with a selection of clear calls. Calls follow the shape of the full dose curve; tested in HEK293 cells. Potencies beside an inconclusive call are fits to weak or partial responses and may not hold up.

Experiment: qHTS for inhibitors of binding or entry into cells for Marburg Virus
Details: Marburg virus pseudotyped entry inhibition, cell reporter; activity change, negative = inhibition: at 37.8 µM (top of the series) unless noted
% is scaled to controls: 0 for no effect and ±100 for the full control effect; potency is read from the fitted curve at half-maximal effect.

SMILES | Potency | activity change, negative = inhibition
Cc1ccc(C(=O)OCc2nc3ccccc3s2)o1 | inconclusive: 12.6 µM [activator, partial curve, poor fit] | –
O=C(Nc1ccc(Br)cc1)c1cccc(S(=O)(=O)Nc2ccccn2)c1 | inconclusive: 20 µM [inhibitor, single point] | –
Cc1ccc(C(=O)N(Cc2nc3ccccc3c(=O)[nH]2)C2CCCC2)cc1 | inconclusive: 8.91 µM [inhibitor, partial curve, poor fit] | –
O=C(Nc1cccc(F)c1)Nc1ccc2c(c1)OCO2 | inconclusive: 22.4 µM [inhibitor, single point] | –
C/C(CC(=O)Nc1ccc(Br)cc1)=N\NC(=O)Cc1csc(N)n1 | – | inactive: 3.1% [at 46.1 µM]
Cc1cc(NC(=O)C(C)SCC(=O)Nc2ccccc2N2CCCCC2)no1 (configuration not stated) | – | inactive: -30%
NC(=O)C(=O)N/N=C1\CCc2ccccc21 | inconclusive: 1.26 µM [activator, single point] | –
COc1cccc(NC(=O)Cn2c(=O)n(-c3cccc(OC)c3)c(=O)c3c4c(sc32)CCCC4)c1 | inconclusive: 6.31 µM [activator, single point] | –
COC(=O)CNC(=O)C12CC3(C)CC(C)(CC(C)(C3)C1)C2 | inconclusive: 14.1 µM [inhibitor, partial curve, poor fit] | –
O=C1N(Cc2ccc(F)cc2)c2ccccc2[C@@]12O[C@H](COc1ccccc1)CC1CCCC12 (some centres not stated) | inconclusive: 5.31 µM [activator, single point] | –
Cc1ccc(CN2C(=O)CN=C(c3ccccc3)c3ccccc32)cc1 | inconclusive: 5.62 µM [activator, single point] | –
COc1cccc(N2C(=O)NC(=O)/C(=C\c3ccc([N+](=O)[O-])s3)C2=O)c1 | inconclusive: 15.8 µM [inhibitor, single point] | –
COCc1cc(C)nc2sc(C(=O)NN)c(-n3cccc3)c12 | inconclusive: 6.31 µM [activator, single point] | –
Cc1nnn(C23CC4CC(CC(CC(=O)Nc5cccc(F)c5)(C4)C2)C3)n1 | inconclusive: 35.5 µM [inhibitor, single point] | –
O=C(CCc1ccccc1)NCC(c1ccco1)N1CCc2ccccc21 (configuration not stated) | inconclusive: 15.8 µM [inhibitor, single point] | –
COC(=O)c1c(C(=O)OC)c(-c2ccc(Cl)c(Cl)c2)n2c1CCC2 | inconclusive: 10.3 µM [inhibitor, partial curve] | –
Cc1ccnc(N2CCC(C(=O)Nc3cccc(C(F)(F)F)c3)CC2)n1 | inconclusive: 13 µM [inhibitor, partial curve, poor fit] | –
c1ccc2oc(CCc3nc4ccccc4o3)nc2c1 | inconclusive: 3.55 µM [activator, full curve] | –
O=C1C(Cl)=C(NC(=O)c2ccccc2)C(=O)C(Cl)=C1NC(=O)c1ccccc1 | inconclusive: 12.6 µM [inhibitor, partial curve, poor fit] | –
COc1ccc(CN2CCOCCOCCOCC2)cc1 | – | inactive: 11.6%
O=C(CCC1CCCCC1)NCc1ccccn1 | inconclusive: 20 µM [activator, single point] | –

Quoted from the listing:
O=C(Nc1cccc(F)c1)Nc1ccc2c(c1)OCO2 | Potency: inconclusive: 22.4 µM [inhibitor, single point]
NC(=O)C(=O)N/N=C1\CCc2ccccc21 | Potency: inconclusive: 1.26 µM [activator, single point]
COC(=O)CNC(=O)C12CC3(C)CC(C)(CC(C)(C3)C1)C2 | Potency: inconclusive: 14.1 µM [inhibitor, partial curve, poor fit]
c1ccc2oc(CCc3nc4ccccc4o3)nc2c1 | Potency: inconclusive: 3.55 µM [activator, full curve]

Continuation.

SMILES | Potency | activity change, negative = inhibition
CC(C)(C)NC(=O)CSc1nnc(NC(=O)CCn2cnc3ccccc3c2=O)s1 | inconclusive: 12.6 µM [activator, single point] | –
Cc1ccc(NC(=O)CSc2ncc3ccccn23)cc1 | – | inactive: 5.65% [at 46.1 µM]
CC1CCCCN1CC(O)COc1ccc(OCC(O)CN2CCCCC2C)cc1 (configuration not stated) | inconclusive: 10 µM [inhibitor, partial curve, poor fit] | –
CCCNC(=O)OC[C@H]1O[C@H](CCO/N=C(\C)CCN2CCCc3nc(C)c(C)cc32)C=C[C@@H]1Oc1ccc(OC)cc1 | inconclusive: 1.06 µM [inhibitor, full curve, poor fit] | –
O=C(Oc1ccccc1C(=O)Oc1ccccc1)c1ccco1 | inconclusive: 0.259 µM [inhibitor, single point] | –
COc1cc(CNCc2ccccc2)cc(Cl)c1OC | inconclusive: 35.5 µM [inhibitor, single point] | –
Cc1noc(C)c1S(=O)(=O)N1CCCC(C(=O)NCC2CCCO2)C1 (configuration not stated) | – | inactive: -7.52% [at 46.1 µM]
Cc1cccc(-c2noc(-c3ccc(N4CCCC4)c([N+](=O)[O-])c3)n2)c1 | inconclusive: 35.5 µM [activator, partial curve, poor fit] | –
CCOc1c(/C=C(\C#N)C(N)=O)c2ccccc2n1CC | inconclusive: 35.5 µM [inhibitor, partial curve, poor fit] | –
N#CSCC(=O)N1c2ccccc2CCc2ccccc21 | inconclusive: 28.2 µM [inhibitor, partial curve, poor fit] | –
CC(C)CCn1c(N)c(S(=O)(=O)c2cccs2)c2nc3ccccc3nc21 | active: 14.6 µM | –
CC(c1ccco1)N(C(=O)COc1ccc(Cl)cc1)c1ccccn1 (configuration not stated) | inconclusive: 3.55 µM [activator, full curve, poor fit] | –
O=C(Nc1ccon1)Nc1ccc(F)cc1F | – | inactive: -0.638% [at 46.1 µM]
Cc1ccc(F)cc1NCC(=O)Nc1ccc(Br)cc1 | inconclusive: 5.62 µM [activator, single point] | –
C(=N\N1CCN(Cc2ccccc2)CC1)/c1cccnc1 | inconclusive: 15.8 µM [activator, single point] | –
O=C(OCc1cc(=O)n2ccsc2n1)c1ccccc1O | inconclusive: 35.5 µM [activator, single point] | –
Cc1ccc(-n2nc3cc(Cl)c(NC(=O)c4ccco4)cc3n2)cc1 | inconclusive: 29.1 µM [inhibitor, single point] | –
CC(C(=O)NNS(=O)(=O)c1cccc(C(F)(F)F)c1)n1nnc(N2CCOCC2)n1 (configuration not stated) | inconclusive: 6.31 µM [activator, single point] | –
CCOC(=O)CCCNC(=O)CCNC(=O)c1ccc(OC(C)C)cc1 | – | inactive: -0.723%
O=C(Nc1cc(-c2ccccc2)[nH]n1)c1ccccc1 | inconclusive: 0.891 µM [activator, partial curve, poor fit] | –
CC(NC(=O)c1ccc(F)cc1)C(c1cccs1)N1CCN(C)CC1 (configuration not stated) | – | inactive: -2.21%
